Results on 62 molecules are retold here after PubChem BioAssay AID445 (National Center for Advancing Translational Sciences (NCATS), 2006).

Each structure is given as a SMILES string. The list shows a part of the results. Shown are side measurements of this screen, not its main read-out; they come without a call. The list favours compounds with an active or inconclusive main result. Potencies come from curve fits of mixed quality, noted in brackets.

This experiment is described as follows: IkB Signaling. Conditions: ABC-DLBCL IkBa-CBG/CBR dual luciferase ratio (green luciferase fused to IkBa over red control in OCI-Ly3 lymphoma cells), 4 h. In outline:
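In this assay, an IκBα–CBG68 fusion accumulates when IKK-driven degradation is blocked; native CBR normalizes for cell number. OCI-Ly3 cells were treated 4 h with compound and doxycycline, then green and red light read after Chroma-Glo addition.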

[1] abbreviates: measured here: control luc red channel unless noted.
[2] abbreviates: measured here: IkB-luc green channel.
Setting [3] is: measured here: control luc red channel.

For orientation: AC50 means the concentration giving half of the maximal activity seen. In the case of `Cc1nc2ccc(S(=O)(=O)NCC(=O)Nc3ccc(C)c(Cl)c3)cc2s1`, the AC50 under setting [1] is 15.8 µM [falling, single point]. The same measure, in the same setting: for `Cc1cc(C)cc(NC(=O)CSc2nc3c(cnn3-c3ccc(F)cc3)c(=O)[nH]2)c1` the value was 0.01 µM [falling, full curve, poor fit]; for `CCCCOC(=O)c1ccc(NC(=O)c2cc(=O)c3ccccc3o2)cc1`, 10 µM [falling, partial curve]; for `O=C(O)CCCn1cc(NC(=O)COc2ccccc2F)cn1`, 0.398 µM [falling, full curve]. In the case of `O=C(Nc1ccc(OC(F)(F)F)cc1)C(NS(=O)(=O)c1cccc2nsnc12)c1ccccc1` (centres undefined), the half-maximal activity concentration (AC50) under setting [1] was 15.8 µM [falling, partial curve]. On the same count and under the same terms, for `O=C(CSc1ncc2c(n1)-c1cc(Cl)ccc1N(Cc1ccccc1)S2(=O)=O)NCc1ccccc1` the value was 7.94 µM [falling, full curve, poor fit]. Take `CCOc1ccc(NC(=O)c2ncn(-c3ccccc3)n2)cc1`: the AC50 under setting [1] is 7.94 µM [falling, partial curve]. The same measure, in the same setting: with `Cc1cc(C)c2nc(C(F)(F)F)nc(N3CCN(C(=O)c4ccco4)CC3)c2c1` the figure was 3.16 µM [falling, full curve]; with `Fc1ccc(Nc2c(-c3c[nH]c4ccccc34)nc3ccccn23)cc1`, 0.01 µM [falling, full curve]; with `Cc1ccc(C(=O)Nc2nnc(S(=O)(=O)N3CCCc4ccccc43)s2)cc1`, 3.16 µM [rising, partial curve]. The same measure, in the same setting: with `CC1=C(C(=O)Nc2ccccc2)C(c2ccco2)C(C#N)=C(SCC(=O)OC(C)C)N1` (centres undefined) the figure was 3.98 µM [falling, partial curve]; with `COc1ccc(CCNC(=O)c2ccc(CSCc3ccc(C)cc3)o2)cc1OC`, 25.1 µM [falling, partial curve].

Take `COCCCNC(=O)C1CCN(C(=O)c2cc3sccc3n2Cc2ccc(Cl)cc2)CC1`: under setting [1], the concentration at half-maximal activity (AC50) was 39.8 µM [falling, single point]. With `Cc1cccc(CSc2ccc3nnc(CCNS(=O)(=O)c4ccccc4)n3n2)c1`, under setting [1], the half-maximal activity concentration (AC50) was 12.6 µM [falling, partial curve]. `COc1ccc(OC)c(-n2cnc3cc(C(=O)NC4CCCC4)ccc32)c1`: the AC50 under setting [1] was 3.16 µM [falling, partial curve, poor fit].

Turning to `Cc1oc(-c2ccccc2)nc1CNS(=O)(=O)c1ccc(Cl)cc1`, under setting [1], the AC50 is 15.8 µM [falling, partial curve].

As to `CCCOc1ccc(NC(=O)CC2C(=O)N(c3cccc(C)c3)C(=O)N2CCc2ccncc2)cc1` (centres undefined), under setting [1], the concentration at half-maximal activity (AC50) is 31.6 µM [falling, single point]. As for `Cc1cccc(-c2nc(N3CCN(c4ccc(F)cc4)CC3)c3ccccc3n2)c1`, under setting [1], the AC50 is 20 µM [falling, single point].

Turning to `COc1ccc(Nc2nc3c(S(=O)(=O)c4ccccc4)nnn3c3ccc(Cl)cc23)cc1OC`, the AC50 under setting [1] is 3.16 µM [rising, full curve]. Same read-out and setting: for `Cc1ccc(-n2c(=O)c3c(cnn3C)n(CC(=O)Nc3cc(C)ccc3C)c2=O)cc1` the value was 6.31 µM [falling, full curve, poor fit]. `CN(C)c1ccc(C(=O)Nc2nc3c(s2)CCCC3)cc1`: the AC50 reads like this: under setting [2], 39.8 µM [rising, single point]; under setting [3], 5.01 µM [falling, partial curve]. For the molecule `O=C(CCSCc1cnn(-c2ccccc2)c1-n1cccc1)NCc1ccc(Cl)cc1`, under setting [1], the AC50 is 39.8 µM [falling, single point]. Regarding `COc1ccc2[nH]c(=O)c3c(c2c1)OC(C)(C)C=C3`, the AC50 runs as follows: under setting [2], 6.31 µM [falling, partial curve]; under setting [3], 3.98 µM [falling, partial curve]. For `Cc1ccc(NC(=O)Cn2cc(C(=O)c3cccs3)c3ccccc32)cc1C`, the AC50 under setting [1] was 3.98 µM [falling, partial curve]. Consider `Cc1ccc(C(=O)c2cn(Cc3cccc(F)c3)c3nc(C)ccc3c2=O)cc1`, for which the AC50 under setting [1] is 25.1 µM [falling, single point]. As to `COc1ccc(-c2c(NC(C)=O)n(C)c3ccccc3c2=O)cc1`, the AC50 under setting [1] is 15.8 µM [falling, partial curve]. Take `O=C(CCn1cccn1)Nc1cccc(C(F)(F)F)c1`: the AC50 under setting [1] was 10 µM [rising, partial curve].

Turning to `Cc1cccc(NS(=O)(=O)c2ccc(Cl)c(C(=O)Nc3ccccc3C)c2)c1`, the half-maximal activity concentration (AC50) under setting [1] was 12.6 µM [falling, partial curve]. Same read-out and setting: with `Cc1ccc(NC(=O)c2cc(-c3ccco3)on2)cc1C` the figure was 5.01 µM [falling, partial curve]. `CCCN(Cc1cccs1)C(=O)Nc1ccc(Br)c(C)c1`: the AC50 under setting [1] is 25.1 µM [falling, single point]. On the same count and under the same terms, with `CC(C)Cn1c(-c2ccc(S(=O)(=O)N3CCCC3)cc2)csc1=Nc1ccccc1` the figure was 5.01 µM [falling, full curve]. Turning to `COc1cccc(-n2c(SCC(=O)Nc3ccc(F)cc3F)nc3c([nH]c4ccccc43)c2=O)c1`, the concentration at half-maximal activity (AC50) under setting [1] is 0.794 µM [rising, full curve]. As for `c1csc(-c2nc3ccccn3c2Nc2ccc3c(c2)OCCO3)c1`, the AC50 under setting [1] was 25.1 µM [falling, single point]. Still for that read-out and setting: for `COc1ccccc1CNC(=O)c1cccc(NC(=O)N2CCSc3ncccc32)c1` the value was 12.6 µM [falling, partial curve].

With `CCCCOC(=O)c1ccc(NC(=O)CSc2nc3c(c(=O)[nH]2)CCC3)cc1`, the concentration at half-maximal activity (AC50) under setting [1] was 25.1 µM [falling, partial curve]. Same read-out and setting: for `COC(=O)c1c(-c2ccc(Cl)cc2)noc1N1CCN(c2cccc(OC)c2)CC1` the value was 3.16 µM [falling, partial curve]. On the same count and under the same terms, with `CCOc1ccccc1C(=O)NCC(c1ccc(N(C)C)cc1)N1CCc2ccccc21` (centres undefined) the figure was 12.6 µM [falling, partial curve]; with `CCOC(=O)c1cccc(Nc2nc(C(=O)OCC)nc3ccccc23)c1`, 39.8 µM [falling, single point]; with `COc1ccc(CCNC(=O)CSc2nnc(CNc3ccc(Cl)cc3)o2)cc1OC`, 39.8 µM [falling, single point]. Same read-out and setting: for `Cc1ccc(-n2ncc3c(NCCCn4ccnc4)ncnc32)cc1` the value was 1.58 µM [falling, partial curve]. As for `Cc1ccc(NC(=O)c2cc(-c3cccs3)on2)cc1C`, under setting [1], the AC50 is 10 µM [falling, partial curve]. As to `CCN1CCN(CCCNC(=O)c2cnn(-c3ccc(C)cc3)c2C2CCN(C(=O)OC(C)(C)C)CC2)CC1`, the AC50 under setting [1] was 39.8 µM [falling, partial curve, poor fit].

Turning to `Cc1cc(C)cc(NC(=O)c2ccc3c(O)c(S(=O)(=O)c4ccccc4)c(=O)[nH]c3c2)c1`, under setting [1], the AC50 was 10 µM [falling, partial curve]. The same measure, in the same setting: with `COc1cc(Cl)c(C)cc1NC(=O)c1ccc(CN2C(=O)CCn3nc(C)cc32)cc1` the figure was 10 µM [falling, partial curve]; with `Cc1c(Cl)cccc1NC(=O)CSc1ncc(S(=O)(=O)c2ccc(C(C)C)cc2)c(=O)[nH]1`, 15.8 µM [falling, partial curve]; with `c1ccc(-c2cc(CSc3nc4ccccc4[nH]3)on2)cc1`, 7.94 µM [falling, partial curve]. Same read-out and setting: with `CCCCOC(=O)c1ccc(NC(=O)Cc2coc3c(C)c(C)ccc23)cc1` the figure was 0.631 µM [falling, full curve]. Same read-out and setting: with `Cc1cc(C)c2c(N)c(S(=O)(=O)c3ccccc3)sc2n1` the figure was 7.94 µM [falling, partial curve]; with `COC(=O)c1ccccc1NC(=O)C1(c2cccs2)CCOCC1`, 3.16 µM [rising, full curve]. For `Cc1cccc(CNC(=O)CN2C(=O)C3CCCCN3c3ccc(C(=O)N4CCCC4)cc32)c1` (centres undefined), the AC50 under setting [1] is 6.31 µM [falling, full curve]. Take `Cc1ccc(-c2nnc(Nc3ccc(Cl)c(Cl)c3)c3ccccc23)cc1S(=O)(=O)N(C)C`: the concentration at half-maximal activity (AC50) under setting [1] is 0.631 µM [falling, full curve]. As to `COc1ccc(CCNS(=O)(=O)c2ccc(F)c(C(=O)Nc3ccc(Cl)cc3)c2)cc1OC`, under setting [1], the concentration at half-maximal activity (AC50) is 25.1 µM [falling, partial curve]. Consider `Cc1ccc(C(=O)N2CCN(c3ccc(F)cc3)CC2)cc1NC(=O)c1nsc2ccccc12`, for which the AC50 under setting [1] is 31.6 µM [falling, partial curve]. On the same count and under the same terms, for `CCn1c(C(=O)NCc2ccc(OC)cc2)cc2sc(Cl)cc21` the value was 31.6 µM [falling, partial curve].

On to `O=C(CCCn1c(=S)[nH]c2cc3c(cc2c1=O)OCO3)N1CCN(c2ccc(F)cc2)CC1`, for which the AC50 under setting [1] is 7.94 µM [falling, partial curve]. Consider `CCn1cc(C(=O)N2CCN(c3ccccc3)CC2)c(=O)c2cc(S(=O)(=O)N3CCCC3)ccc21`, for which the concentration at half-maximal activity (AC50) under setting [1] was 10 µM [falling, partial curve]. The same measure, in the same setting: with `O=C(CSc1nnc(-c2ccccc2)o1)c1nnc(-c2ccccc2)o1` the figure was 15.8 µM [falling, partial curve]. The same measure, in the same setting: with `CCOc1ccccc1Nc1nc(-c2ccc(C)cc2)c(CC(=O)O)s1` the figure was 15.8 µM [falling, partial curve]. Still for that read-out and setting: with `COc1cccc(CNC(=O)CN2C(=O)N(c3c(C)cccc3C)S(=O)(=O)c3ccccc32)c1OC` the figure was 31.6 µM [falling, single point]; with `COc1ccc(OC)c(NC(=O)C(C)n2nc(C)c3c(C)n(-c4ccccc4)nc3c2=O)c1` (centres undefined), 25.1 µM [falling, single point]. Consider `COc1ccc2c(c1)CCc1c(C(=O)Nc3c(C)nn(Cc4ccc(Cl)cc4)c3C)noc1-2`, for which, under setting [1], the AC50 is 6.31 µM [falling, full curve]. On the same count and under the same terms, for `CC(=O)c1cccc(NC(=O)Cn2c(=O)oc3cc(S(=O)(=O)NC4CCCC4)ccc32)c1` the value was 39.8 µM [falling, single point].
